Results taken from the supplement of paper PMC10849652.
The other results are listed elsewhere or left out.

By UniProt entry, the sequences of proteins in these tests, tags left out. Where a name states a change or a piece, a line headed by the entry shows the natural chain unless it says otherwise.
UniProt P46531, whole entry, looked up: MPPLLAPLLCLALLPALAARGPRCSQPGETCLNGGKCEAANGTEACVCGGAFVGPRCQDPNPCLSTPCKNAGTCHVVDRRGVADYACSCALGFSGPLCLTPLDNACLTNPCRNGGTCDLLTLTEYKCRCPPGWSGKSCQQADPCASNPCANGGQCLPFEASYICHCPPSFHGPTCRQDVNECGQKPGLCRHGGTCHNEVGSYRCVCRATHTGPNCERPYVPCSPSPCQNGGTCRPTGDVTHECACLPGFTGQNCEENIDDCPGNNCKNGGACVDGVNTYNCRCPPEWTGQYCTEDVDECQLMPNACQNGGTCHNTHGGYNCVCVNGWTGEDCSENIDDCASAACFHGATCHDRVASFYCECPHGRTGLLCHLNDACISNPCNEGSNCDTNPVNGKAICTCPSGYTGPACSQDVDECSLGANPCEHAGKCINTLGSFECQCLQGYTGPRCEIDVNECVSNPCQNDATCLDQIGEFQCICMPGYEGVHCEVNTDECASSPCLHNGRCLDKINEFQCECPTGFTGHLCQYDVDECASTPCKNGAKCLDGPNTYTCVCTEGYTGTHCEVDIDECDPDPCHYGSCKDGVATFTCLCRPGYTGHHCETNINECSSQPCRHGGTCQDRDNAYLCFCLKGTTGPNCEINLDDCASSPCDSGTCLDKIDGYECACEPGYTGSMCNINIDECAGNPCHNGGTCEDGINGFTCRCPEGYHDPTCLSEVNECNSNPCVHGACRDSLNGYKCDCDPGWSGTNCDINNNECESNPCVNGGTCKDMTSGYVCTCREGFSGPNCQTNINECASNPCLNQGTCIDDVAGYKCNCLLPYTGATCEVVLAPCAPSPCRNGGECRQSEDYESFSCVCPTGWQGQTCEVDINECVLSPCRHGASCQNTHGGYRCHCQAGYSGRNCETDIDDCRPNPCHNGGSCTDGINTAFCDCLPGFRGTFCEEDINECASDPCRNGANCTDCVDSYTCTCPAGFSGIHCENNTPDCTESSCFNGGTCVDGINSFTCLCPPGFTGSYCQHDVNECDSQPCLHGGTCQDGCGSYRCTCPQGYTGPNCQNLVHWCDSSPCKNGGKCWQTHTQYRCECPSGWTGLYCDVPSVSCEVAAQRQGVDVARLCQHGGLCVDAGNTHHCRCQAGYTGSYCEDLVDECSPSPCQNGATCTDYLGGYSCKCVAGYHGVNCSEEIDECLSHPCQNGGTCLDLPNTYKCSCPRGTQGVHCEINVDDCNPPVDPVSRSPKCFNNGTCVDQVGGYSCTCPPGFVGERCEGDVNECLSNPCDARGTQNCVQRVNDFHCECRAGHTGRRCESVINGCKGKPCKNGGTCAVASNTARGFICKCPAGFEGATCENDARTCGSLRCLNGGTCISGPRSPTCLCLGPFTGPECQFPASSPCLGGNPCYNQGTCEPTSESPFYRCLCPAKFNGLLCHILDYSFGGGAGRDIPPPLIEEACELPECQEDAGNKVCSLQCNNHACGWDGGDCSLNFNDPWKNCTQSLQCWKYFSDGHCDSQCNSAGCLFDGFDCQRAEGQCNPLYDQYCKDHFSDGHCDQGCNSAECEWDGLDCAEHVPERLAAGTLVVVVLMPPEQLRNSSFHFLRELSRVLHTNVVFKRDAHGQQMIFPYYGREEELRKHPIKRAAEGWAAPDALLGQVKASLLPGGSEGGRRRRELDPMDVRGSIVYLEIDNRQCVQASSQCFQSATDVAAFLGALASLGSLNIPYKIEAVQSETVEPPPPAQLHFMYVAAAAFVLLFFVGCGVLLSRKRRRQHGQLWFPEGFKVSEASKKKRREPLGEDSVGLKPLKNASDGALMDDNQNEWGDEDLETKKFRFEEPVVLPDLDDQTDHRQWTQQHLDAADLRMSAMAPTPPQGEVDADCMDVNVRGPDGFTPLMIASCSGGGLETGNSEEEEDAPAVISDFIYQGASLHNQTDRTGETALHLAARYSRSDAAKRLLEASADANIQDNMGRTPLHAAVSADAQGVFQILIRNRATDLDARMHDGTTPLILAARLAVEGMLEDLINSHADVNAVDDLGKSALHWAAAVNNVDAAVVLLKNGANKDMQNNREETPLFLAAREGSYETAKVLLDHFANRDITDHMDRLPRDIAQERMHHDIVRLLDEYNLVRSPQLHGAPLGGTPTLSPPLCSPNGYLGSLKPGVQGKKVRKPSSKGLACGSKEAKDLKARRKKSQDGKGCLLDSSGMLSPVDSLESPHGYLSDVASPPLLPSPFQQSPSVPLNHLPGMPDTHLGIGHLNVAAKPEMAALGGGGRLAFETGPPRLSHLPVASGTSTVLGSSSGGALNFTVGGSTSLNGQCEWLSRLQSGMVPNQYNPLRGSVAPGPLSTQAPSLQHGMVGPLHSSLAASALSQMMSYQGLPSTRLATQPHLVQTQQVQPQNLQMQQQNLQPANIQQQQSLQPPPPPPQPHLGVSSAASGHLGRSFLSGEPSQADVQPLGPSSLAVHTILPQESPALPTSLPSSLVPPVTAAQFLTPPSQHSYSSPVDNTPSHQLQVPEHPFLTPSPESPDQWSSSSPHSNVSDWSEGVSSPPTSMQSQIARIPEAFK
UniProt P48645: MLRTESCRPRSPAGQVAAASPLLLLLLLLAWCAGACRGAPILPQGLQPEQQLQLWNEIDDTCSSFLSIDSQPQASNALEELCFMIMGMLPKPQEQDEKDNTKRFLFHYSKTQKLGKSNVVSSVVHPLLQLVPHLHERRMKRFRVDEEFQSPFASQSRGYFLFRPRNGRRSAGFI
UniProt Q5C9Z4: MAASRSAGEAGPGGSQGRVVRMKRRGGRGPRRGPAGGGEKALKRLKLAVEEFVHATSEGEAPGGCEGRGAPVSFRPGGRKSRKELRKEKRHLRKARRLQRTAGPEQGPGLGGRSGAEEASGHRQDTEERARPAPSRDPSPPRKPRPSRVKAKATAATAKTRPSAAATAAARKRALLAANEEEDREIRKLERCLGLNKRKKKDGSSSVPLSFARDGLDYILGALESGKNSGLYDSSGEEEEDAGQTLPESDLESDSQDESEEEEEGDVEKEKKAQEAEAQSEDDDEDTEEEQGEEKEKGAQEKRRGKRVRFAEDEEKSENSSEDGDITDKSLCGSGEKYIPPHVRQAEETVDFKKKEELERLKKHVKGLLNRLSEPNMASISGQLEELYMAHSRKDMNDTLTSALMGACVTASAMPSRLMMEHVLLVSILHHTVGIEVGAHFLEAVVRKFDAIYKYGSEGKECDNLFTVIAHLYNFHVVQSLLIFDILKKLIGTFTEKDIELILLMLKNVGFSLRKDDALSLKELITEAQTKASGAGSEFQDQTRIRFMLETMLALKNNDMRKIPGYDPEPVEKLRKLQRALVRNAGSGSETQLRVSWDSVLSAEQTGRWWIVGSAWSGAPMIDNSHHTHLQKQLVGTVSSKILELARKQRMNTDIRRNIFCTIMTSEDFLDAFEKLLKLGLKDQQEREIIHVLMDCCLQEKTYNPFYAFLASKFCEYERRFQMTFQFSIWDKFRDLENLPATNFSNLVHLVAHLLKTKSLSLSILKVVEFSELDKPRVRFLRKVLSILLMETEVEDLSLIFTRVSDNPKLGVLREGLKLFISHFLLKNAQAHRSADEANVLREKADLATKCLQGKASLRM
UniProt Q8WV74: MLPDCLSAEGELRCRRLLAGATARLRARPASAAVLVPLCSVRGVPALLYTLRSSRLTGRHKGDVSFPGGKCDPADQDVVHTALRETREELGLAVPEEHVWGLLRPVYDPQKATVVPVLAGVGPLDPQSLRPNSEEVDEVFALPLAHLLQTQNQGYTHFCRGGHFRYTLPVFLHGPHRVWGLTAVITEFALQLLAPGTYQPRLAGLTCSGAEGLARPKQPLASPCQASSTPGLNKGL
UniProt O95848: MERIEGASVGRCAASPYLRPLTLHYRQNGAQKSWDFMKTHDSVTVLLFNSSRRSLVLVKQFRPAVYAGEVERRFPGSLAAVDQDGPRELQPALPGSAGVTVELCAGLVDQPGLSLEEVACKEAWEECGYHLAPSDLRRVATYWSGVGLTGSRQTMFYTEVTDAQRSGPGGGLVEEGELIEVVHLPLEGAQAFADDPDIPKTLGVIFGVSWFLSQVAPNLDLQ
UniProt Q8NE18: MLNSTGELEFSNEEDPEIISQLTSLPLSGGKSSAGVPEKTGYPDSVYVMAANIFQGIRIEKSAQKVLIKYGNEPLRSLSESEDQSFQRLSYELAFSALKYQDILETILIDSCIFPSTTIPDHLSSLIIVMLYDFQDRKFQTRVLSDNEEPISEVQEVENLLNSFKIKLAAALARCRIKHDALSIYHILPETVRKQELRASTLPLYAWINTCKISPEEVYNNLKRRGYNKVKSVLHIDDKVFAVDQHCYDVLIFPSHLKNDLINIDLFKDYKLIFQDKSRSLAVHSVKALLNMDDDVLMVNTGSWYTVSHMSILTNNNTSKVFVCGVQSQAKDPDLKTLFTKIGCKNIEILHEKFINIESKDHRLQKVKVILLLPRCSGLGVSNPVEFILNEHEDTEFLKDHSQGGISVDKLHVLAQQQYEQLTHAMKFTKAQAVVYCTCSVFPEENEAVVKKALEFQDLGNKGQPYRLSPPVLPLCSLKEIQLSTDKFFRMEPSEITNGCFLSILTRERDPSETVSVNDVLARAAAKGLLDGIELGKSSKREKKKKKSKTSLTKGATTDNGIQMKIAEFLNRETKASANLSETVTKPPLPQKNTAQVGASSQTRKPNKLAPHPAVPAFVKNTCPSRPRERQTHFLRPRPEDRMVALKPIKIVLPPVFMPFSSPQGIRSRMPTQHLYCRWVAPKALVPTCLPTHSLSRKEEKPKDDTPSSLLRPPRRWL
UniProt Q15155: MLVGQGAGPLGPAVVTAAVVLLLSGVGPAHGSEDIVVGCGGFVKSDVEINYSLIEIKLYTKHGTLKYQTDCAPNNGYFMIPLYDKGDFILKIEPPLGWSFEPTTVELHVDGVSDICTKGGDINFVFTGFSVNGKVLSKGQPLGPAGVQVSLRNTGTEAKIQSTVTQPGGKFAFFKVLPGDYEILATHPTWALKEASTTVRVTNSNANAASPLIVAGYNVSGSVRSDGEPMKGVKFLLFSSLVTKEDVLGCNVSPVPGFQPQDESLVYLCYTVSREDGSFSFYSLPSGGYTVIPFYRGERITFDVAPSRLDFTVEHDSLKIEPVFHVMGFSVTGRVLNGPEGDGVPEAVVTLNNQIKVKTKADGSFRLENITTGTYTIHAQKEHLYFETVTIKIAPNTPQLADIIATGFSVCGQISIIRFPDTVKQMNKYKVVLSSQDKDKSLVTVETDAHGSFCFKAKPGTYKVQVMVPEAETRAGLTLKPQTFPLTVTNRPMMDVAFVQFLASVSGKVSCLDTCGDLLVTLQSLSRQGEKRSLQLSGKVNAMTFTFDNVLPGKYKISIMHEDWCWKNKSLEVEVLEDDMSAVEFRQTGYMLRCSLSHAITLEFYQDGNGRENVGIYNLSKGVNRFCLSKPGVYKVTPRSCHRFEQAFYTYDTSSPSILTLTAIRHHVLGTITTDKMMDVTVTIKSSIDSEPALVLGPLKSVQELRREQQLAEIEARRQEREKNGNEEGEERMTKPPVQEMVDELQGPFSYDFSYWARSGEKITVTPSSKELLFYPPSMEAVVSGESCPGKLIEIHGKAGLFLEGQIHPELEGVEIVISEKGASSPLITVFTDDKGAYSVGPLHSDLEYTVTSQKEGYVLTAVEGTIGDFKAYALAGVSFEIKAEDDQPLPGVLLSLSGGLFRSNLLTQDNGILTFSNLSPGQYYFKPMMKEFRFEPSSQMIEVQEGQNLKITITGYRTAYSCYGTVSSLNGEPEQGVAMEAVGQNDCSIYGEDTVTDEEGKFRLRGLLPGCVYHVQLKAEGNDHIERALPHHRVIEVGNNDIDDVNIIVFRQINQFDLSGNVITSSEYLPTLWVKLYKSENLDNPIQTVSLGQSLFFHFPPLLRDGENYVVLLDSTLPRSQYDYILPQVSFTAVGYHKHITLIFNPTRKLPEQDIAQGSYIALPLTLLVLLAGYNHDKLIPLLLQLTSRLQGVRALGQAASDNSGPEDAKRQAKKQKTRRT
UniProt Q9NPE3: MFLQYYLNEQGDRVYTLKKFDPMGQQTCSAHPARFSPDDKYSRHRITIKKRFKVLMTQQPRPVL
UniProt Q96AB6: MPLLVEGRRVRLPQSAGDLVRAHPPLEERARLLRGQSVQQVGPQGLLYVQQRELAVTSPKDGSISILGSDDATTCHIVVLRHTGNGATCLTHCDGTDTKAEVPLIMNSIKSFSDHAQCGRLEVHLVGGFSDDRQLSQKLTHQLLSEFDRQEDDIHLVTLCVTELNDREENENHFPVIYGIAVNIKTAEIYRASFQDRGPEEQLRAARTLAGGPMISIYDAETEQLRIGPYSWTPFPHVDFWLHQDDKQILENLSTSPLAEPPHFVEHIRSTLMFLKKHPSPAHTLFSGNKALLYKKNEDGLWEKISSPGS

Compound: c1ccc([C@@H]2C[C@H]2NC2CCNCC2)cc1
Assay: log2 fold change, soluble protein after heating vs DMSO (PISA); higher = thermal stabilisation; K562 lysate, 10 uM; active = over 0.2 and 3.5 SD of the protein, either way, in both replicates (recomputed)
Method in brief: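 Log-two fold change in thermal stability relative to solvent controls is reported from duplicates. For each sample, crude K562 extract from dounce-homogenised pellets in PBS pH 7.4 with 1 mM MgCl2, at 1 mg/mL protein, was treated with 10 μM compound for 30 min. Aliquots heated for 3 min across 48°C-58°C were pooled, brought to 0.5% NP-40 at 4°C and cleared at 21,000xg for 90 min. The supernatant was quantified by TMTpro 16plex LC-MS/MS with channel sums equalised.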

Question: NOTCH1 (UniProt P46531) was tested. Which log2 fold change did it give?
Answer: The log2 fold change was inactive: -0.139.

Question: For NUFIP1 (UniProt Q9UHK0), which log2 fold change is on record?
Answer: Its log2 fold change is inactive: -0.026.

Question: NR2C1 (UniProt P13056) was tested. Which log2 fold change did it give?
Answer: Its log2 fold change is inactive: 0.205.

Question: How did the log2 fold change turn out when NMU (UniProt P48645) was run?
Answer: The log2 fold change was inactive: 0.06.

Question: For NOL8 (UniProt Q76FK4), which log2 fold change is on record?
Answer: Its log2 fold change is inactive: -0.025.

Question: Which log2 fold change does the source give for NOM1 (UniProt Q5C9Z4) here?
Answer: Its log2 fold change is inactive: -0.003.

Question: NUDT18 (UniProt Q6ZVK8) was tested. Which log2 fold change did it give?
Answer: The log2 fold change was inactive: -0.075.

Question: Which log2 fold change does the source give for NRIP1 (UniProt P48552) here?
Answer: Its log2 fold change is inactive: -0.069.

Question: NUDT8 (UniProt Q8WV74) was tested. Which log2 fold change did it give?
Answer: Its log2 fold change is inactive: -0.089.

Question: How did the log2 fold change turn out when NUDT14 (UniProt O95848) was run?
Answer: Its log2 fold change is inactive: -0.079.

Question: Which log2 fold change does the source give for NSUN7 (UniProt Q8NE18) here?
Answer: The log2 fold change was inactive: -0.081.

Question: Which log2 fold change does the source give for NSD2 (UniProt O96028) here?
Answer: Its log2 fold change is inactive: 0.107.

Question: How did the log2 fold change turn out when NOS1AP (UniProt O75052) was run?
Answer: The log2 fold change was inactive: -0.075.

Question: Which log2 fold change does the source give for NPRL3 (UniProt Q12980) here?
Answer: Its log2 fold change is inactive: -0.064.

Question: Which log2 fold change does the source give for NTRK1 (UniProt P04629) here?
Answer: Its log2 fold change is inactive: -0.329.

Question: For NRIP3 (UniProt Q9NQ35), which log2 fold change is on record?
Answer: The log2 fold change was inactive: 0.054.

Question: NR2F2 (UniProt P24468) was tested. Which log2 fold change did it give?
Answer: Its log2 fold change is inactive: 0.082.

Question: NOL4L (UniProt Q96MY1) was tested. Which log2 fold change did it give?
Answer: Its log2 fold change is inactive: 0.034.

Question: With NOLC1 isoform 3 (UniProt Q14978) as the target, how does the log2 fold change read?
Answer: The log2 fold change was inactive: -0.157.

Question: With NSD1 (UniProt Q96L73) as the target, how does the log2 fold change read?
Answer: The log2 fold change was inactive: -0.005.

Question: Which log2 fold change does the source give for NOMO1 (UniProt Q15155) here?
Answer: Its log2 fold change is inactive: 0.176.

Question: NOP2 isoform 4 (UniProt P46087) was tested. Which log2 fold change did it give?
Answer: Its log2 fold change is inactive: 0.018.

Question: NOP10 (UniProt Q9NPE3) was tested. Which log2 fold change did it give?
Answer: The log2 fold change was inactive: -0.031.

Question: For NSD3 (UniProt Q9BZ95), which log2 fold change is on record?
Answer: Its log2 fold change is inactive: 0.028.

Question: For NTAN1 (UniProt Q96AB6), which log2 fold change is on record?
Answer: The log2 fold change was inactive: -0.05.
